Measurements taken from PMC5342210, “Staphylococcal protein Ecb impairs complement receptor-1 mediated recognition of opsonized bacteria” (PLoS ONE, 2017).
Results are given in words; binding and its absence hold for the method and conditions named. Some results given as binding are weak or reduced against the parent protein; the word gives no strength.

Sequences of proteins named here, by UniProt entry; tags and fusion partners are left off. A change or cut given only in a name is not applied to a line headed by its entry. Residues count along the entry.
UniProt P17927, residues 42-2039: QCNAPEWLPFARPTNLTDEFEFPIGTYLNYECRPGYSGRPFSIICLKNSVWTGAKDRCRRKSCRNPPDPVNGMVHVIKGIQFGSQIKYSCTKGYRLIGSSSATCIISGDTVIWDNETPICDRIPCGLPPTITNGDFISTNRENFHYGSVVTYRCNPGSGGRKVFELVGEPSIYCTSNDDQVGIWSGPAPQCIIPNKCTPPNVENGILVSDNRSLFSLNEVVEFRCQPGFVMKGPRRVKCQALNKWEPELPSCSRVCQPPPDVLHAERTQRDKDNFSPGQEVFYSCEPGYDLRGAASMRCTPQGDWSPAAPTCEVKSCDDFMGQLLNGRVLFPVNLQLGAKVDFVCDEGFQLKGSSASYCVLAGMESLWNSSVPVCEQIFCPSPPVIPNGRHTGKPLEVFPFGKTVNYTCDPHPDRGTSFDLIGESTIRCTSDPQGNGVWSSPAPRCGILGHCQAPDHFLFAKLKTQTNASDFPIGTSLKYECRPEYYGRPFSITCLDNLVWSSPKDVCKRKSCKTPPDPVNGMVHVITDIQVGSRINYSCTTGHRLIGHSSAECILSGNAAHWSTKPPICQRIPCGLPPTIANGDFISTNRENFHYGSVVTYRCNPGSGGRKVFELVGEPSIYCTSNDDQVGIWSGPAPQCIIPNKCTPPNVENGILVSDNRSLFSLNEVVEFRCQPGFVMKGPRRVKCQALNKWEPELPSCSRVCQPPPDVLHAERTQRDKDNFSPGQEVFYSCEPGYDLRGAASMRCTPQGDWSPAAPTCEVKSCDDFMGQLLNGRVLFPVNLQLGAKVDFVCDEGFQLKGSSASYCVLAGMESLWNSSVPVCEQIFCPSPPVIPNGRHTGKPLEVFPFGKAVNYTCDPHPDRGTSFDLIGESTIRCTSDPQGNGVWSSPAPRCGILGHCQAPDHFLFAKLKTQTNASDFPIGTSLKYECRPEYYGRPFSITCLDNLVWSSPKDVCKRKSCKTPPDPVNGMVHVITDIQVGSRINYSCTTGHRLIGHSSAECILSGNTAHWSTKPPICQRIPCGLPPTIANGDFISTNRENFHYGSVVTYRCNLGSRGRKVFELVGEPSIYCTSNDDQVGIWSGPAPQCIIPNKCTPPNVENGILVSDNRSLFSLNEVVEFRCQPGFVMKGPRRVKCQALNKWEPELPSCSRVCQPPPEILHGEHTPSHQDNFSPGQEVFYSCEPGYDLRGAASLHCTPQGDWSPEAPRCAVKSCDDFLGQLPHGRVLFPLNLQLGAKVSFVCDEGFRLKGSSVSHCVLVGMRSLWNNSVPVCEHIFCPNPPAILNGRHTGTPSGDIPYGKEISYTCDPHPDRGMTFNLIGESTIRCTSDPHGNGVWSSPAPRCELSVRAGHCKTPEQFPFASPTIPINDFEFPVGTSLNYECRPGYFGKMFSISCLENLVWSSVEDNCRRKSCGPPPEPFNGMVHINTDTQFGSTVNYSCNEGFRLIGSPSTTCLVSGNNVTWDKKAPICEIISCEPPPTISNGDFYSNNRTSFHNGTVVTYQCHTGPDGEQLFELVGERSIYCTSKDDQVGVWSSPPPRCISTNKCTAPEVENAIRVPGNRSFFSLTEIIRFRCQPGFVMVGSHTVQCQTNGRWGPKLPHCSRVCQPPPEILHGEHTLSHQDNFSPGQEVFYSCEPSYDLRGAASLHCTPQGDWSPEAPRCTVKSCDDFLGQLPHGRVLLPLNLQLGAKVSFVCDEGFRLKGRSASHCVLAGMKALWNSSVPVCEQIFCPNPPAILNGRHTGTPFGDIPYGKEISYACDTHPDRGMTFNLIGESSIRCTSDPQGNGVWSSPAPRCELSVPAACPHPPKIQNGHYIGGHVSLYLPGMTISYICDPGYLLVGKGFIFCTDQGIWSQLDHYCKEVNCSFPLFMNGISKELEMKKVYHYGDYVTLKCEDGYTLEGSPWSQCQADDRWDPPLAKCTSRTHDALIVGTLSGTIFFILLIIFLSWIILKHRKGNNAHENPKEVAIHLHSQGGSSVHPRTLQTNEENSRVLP
UniProt P01024: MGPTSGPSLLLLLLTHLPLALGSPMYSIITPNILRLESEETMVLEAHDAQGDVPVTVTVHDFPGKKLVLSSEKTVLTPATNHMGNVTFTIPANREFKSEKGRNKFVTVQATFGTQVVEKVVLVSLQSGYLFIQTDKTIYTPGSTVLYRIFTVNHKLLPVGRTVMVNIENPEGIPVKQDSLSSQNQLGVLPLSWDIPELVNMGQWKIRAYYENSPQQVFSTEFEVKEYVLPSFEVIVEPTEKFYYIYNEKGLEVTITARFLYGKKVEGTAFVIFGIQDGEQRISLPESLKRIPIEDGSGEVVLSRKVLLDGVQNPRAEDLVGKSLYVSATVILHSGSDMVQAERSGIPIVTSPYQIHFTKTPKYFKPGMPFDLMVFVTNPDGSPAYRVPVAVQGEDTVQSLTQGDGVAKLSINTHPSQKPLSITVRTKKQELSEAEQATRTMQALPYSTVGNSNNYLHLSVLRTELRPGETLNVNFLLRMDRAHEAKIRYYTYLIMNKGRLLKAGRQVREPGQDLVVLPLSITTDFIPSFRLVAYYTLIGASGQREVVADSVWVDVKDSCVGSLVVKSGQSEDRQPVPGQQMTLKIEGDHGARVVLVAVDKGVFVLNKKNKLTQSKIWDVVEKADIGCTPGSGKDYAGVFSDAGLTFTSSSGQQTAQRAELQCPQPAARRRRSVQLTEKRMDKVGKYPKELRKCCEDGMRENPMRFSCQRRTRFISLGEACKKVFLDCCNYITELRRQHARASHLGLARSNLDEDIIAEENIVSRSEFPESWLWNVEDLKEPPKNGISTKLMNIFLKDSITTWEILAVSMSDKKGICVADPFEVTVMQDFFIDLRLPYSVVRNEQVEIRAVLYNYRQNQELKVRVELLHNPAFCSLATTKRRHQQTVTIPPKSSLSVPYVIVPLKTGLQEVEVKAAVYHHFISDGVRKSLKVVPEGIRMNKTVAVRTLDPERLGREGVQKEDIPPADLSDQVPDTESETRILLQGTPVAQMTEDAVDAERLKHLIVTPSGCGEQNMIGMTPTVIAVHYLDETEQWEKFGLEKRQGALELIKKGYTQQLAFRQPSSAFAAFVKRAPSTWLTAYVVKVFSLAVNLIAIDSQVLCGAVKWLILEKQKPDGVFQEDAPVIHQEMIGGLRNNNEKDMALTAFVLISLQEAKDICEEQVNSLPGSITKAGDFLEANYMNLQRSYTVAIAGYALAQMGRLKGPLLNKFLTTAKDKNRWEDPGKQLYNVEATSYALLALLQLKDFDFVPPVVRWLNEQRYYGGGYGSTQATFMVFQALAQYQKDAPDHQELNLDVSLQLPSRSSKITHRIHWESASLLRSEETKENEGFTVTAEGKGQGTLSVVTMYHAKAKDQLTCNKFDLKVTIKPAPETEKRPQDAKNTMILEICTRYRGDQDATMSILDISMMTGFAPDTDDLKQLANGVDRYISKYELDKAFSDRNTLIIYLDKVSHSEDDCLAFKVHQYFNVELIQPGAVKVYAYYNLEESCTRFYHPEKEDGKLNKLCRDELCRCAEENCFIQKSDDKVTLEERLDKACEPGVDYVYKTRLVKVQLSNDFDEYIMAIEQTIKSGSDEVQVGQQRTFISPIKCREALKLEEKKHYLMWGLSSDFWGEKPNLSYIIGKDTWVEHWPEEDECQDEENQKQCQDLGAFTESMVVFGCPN

Biological target: Complement receptor-1 (CR1, CD35), cell surface-bound (human (endogenous in red blood cells and neutrophils)) (UniProt P17927)
Assay: flow cytometry on cells; about 1 x 10^6 washed red cells with C3b (50 ug/ml) together with Ecb (0-0.1 uM), 30 min at 4 C; rabbit anti-human C3c and Alexa Fluor 488-labeled goat anti-rabbit; only the binder purified

Q: C3b (from UniProt P01024) was tested. Which binding did it give?
A: Its binding is “binds”.
